This passage reports binding results from patent US20080102032A1.

Protein sequences, listed by entry. Tags and fused reporters are not part of them. Residues count along the entry.
UniProt P53762, residues 2-791: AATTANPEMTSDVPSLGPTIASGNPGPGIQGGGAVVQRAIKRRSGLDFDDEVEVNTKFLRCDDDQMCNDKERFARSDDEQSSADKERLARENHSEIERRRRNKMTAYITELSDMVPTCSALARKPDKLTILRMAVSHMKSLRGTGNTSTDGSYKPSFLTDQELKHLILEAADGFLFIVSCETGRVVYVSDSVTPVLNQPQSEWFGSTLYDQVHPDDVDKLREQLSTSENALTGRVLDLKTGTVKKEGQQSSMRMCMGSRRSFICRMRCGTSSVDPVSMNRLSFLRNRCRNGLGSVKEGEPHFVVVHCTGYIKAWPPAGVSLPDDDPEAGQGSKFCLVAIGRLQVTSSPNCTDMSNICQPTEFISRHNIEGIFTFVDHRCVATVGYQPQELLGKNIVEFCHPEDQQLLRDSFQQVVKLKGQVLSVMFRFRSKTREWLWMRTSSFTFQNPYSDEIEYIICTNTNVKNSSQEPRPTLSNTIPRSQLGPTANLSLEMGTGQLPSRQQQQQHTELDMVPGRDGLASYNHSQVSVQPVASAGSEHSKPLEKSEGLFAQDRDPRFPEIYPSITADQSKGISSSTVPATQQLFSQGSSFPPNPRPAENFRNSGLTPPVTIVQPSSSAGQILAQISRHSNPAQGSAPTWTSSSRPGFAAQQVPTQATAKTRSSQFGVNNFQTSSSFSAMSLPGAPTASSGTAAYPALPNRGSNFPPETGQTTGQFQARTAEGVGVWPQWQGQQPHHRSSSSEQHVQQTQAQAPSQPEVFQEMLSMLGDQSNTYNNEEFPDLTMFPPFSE
UniProt Q61324: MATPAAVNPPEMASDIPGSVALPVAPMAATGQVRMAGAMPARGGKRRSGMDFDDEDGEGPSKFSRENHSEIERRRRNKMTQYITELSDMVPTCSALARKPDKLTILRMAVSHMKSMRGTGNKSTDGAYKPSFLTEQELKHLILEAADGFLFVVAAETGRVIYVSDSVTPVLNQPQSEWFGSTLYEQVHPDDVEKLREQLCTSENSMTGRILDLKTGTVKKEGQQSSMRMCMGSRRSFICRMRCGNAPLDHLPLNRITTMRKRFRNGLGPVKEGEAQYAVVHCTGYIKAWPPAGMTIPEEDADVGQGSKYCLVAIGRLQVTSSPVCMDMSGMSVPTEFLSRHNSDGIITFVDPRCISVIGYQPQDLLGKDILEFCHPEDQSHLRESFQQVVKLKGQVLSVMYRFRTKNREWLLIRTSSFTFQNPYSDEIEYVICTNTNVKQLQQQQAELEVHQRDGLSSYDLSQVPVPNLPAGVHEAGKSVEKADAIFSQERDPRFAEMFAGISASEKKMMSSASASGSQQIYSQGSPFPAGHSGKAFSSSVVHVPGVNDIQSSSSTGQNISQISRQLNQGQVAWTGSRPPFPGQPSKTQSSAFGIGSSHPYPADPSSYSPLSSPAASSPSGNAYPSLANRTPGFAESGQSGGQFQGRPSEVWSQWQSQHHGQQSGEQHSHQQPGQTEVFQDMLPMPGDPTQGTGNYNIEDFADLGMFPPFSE

Test [1] deals with aryl hydrocarbon receptor nuclear translocator (ARNT), endogenous in Min6 cells (mouse) (UniProt P53762). Briefly: co-immunoprecipitation from Min6 cells, Western blot; confirmed by mass spectrometry. In general terms: In western blotting, separated proteins are transferred to a membrane and probed.
Test [2] has the same target. Briefly: affinity purification of ARNT from Min6 cells, mass spectrometry.

No constants are given. Whether binding was seen depends on the method and setting. Binding seen in cells or lysates may run through a third protein. Here binding means that the protein was enriched with, or labelled near, the bait; the list need not be complete.

As to “aryl hydrocarbon nuclear receptor translocator 2 (ARNT2), endogenous in murine Min6 cells (from UniProt Q61324 1-712)”, the binding result in test [1] and in test [2] was “binds” in each case.
